According to patent US8088927B2, “Fungicide N-cycloalkyl-benzyl-amide derivatives” (Bayer Cropscience AG, priority 2006, dated 2012):
Some results were stated once for a whole list of compounds, not compound by compound.

What was measured:
Sphaerotheca fuliginea = assay: In vivo preventive test on Sphaerotheca fuliginea (cucurbit powdery mildew); settings: dose of 500 ppm, preventive spray, gherkin plants, grading 21 days after contamination
[1] = tested on: Mycosphaerella graminicola; assay: In vivo preventive test on Mycosphaerella graminicola (wheat leaf spot); settings: dose of 500 ppm, preventive spray, wheat plants, grading 21 to 28 days after contamination
Pyrenophora teres = assay: In vivo preventive test on Pyrenophora teres (barley net blotch); settings: dose of 500 ppm, preventive spray, barley plants, grading 12 days after contamination

SMILES | good (at least 70%) or total protection (Sphaerotheca fuliginea) | good (at least 70%) or total protection [1] | good (at least 70%) or total protection (Pyrenophora teres)
Cc1nn(C)c(F)c1C(=O)N(Cc1cc(Cl)cc(Cl)c1)C1CC1 [Compound 280] | at least 70% | at least 70% | –
Cc1cc(C(=O)N(Cc2c(Cl)cc(Cl)cc2Cl)C2CC2)nn1C [Compound 228] | at least 70% | at least 70% | –
Cc1cc(C(=O)N(Cc2ccc(C(F)(F)F)cc2Cl)C2CC2)c(C)o1 [Compound 25] | – | – | at least 70%
COC(=O)C(c1ccccc1Cl)N(C(=O)c1c(C)nn(C)c1F)C1CC1 (stereo not shown) [Compound 383] | at least 70% | at least 70% | –
O=C(c1ccsc1I)N(Cc1c(Cl)cccc1C(F)(F)F)C1CC1 [Compound 94] | – | – | at least 70%
Cc1nc(C(F)F)c(C(=O)N(Cc2cccc(OC(F)(F)F)c2)C2CC2)s1 [Compound 190] | – | – | at least 70%
Cc1nc(C(F)F)c(C(=O)N(C2CC2)C(C#N)c2ccccc2C(F)(F)F)s1 (stereo not shown) [Compound 212] | at least 70% | at least 70% | –
Cc1nn(C)cc1C(=O)N(Cc1c(Cl)cccc1Cl)C1CC1 [Compound 376] | at least 70% | at least 70% | –
COc1nn(C)cc1C(=O)N(Cc1ccc(F)c(Oc2ccccc2)c1)C1CC1 [Compound 460] | at least 70% | at least 70% | –
Cc1nn(C)cc1C(=O)N(Cc1ccc(F)c(Oc2ccccc2)c1)C1CC1 [Compound 374] | at least 70% | at least 70% | –
Cc1ccc(CN(C(=O)c2cn(C)nc2C(F)F)C2CC2)cc1C [Compound 287] | at least 70% | at least 70% | –
COc1nn(C)cc1C(=O)N(Cc1cccc(C)c1)C1CC1 [Compound 285] | at least 70% | at least 70% | –
Cn1cc(C(=O)N(Cc2cc(Cl)cc(Cl)c2)C2CC2)c(C(F)(F)F)c1 [Compound 103] | at least 70% | at least 70% | –
Cc1nn(C)cc1C(=O)N(Cc1c(Cl)cccc1C(F)(F)F)C1CC1 [Compound 375] | at least 70% | at least 70% | –
CCC(c1ccc(Cl)cc1Cl)N(C(=O)c1cn(C)cc1C(F)(F)F)C1CC1 (racemic) [Compound 116] | – | – | at least 70%
COc1ccccc1CN(C(=O)c1cn(C)nc1C(F)F)C1CC1 [Compound 299] | at least 70% | at least 70% | –
Cn1cc(C(=O)N(Cc2ccc3c(c2)OCO3)C2CC2)c(C(F)F)n1 [Compound 305] | at least 70% | at least 70% | –
Cc1nc(C(F)F)c(C(=O)N(C2CC2)C(C#N)c2c(Cl)cccc2Cl)s1 (stereo not shown) [Compound 213] | at least 70% | at least 70% | –
Cc1nc(C(F)F)c(C(=O)N(Cc2ccc(Cl)c(Cl)c2Cl)C2CC2)s1 [Compound 208] | – | – | at least 70%
CCn1nc(C)c(C(=O)N(C2CC2)C(C)c2ccc(Cl)cc2Cl)c1F (stereo not shown) [Compound 436] | at least 70% | at least 70% | –
COc1ccccc1CN(C(=O)c1cn(C)nc1C(F)(F)F)C1CC1 [Compound 338] | at least 70% | at least 70% | –

SMILES | good (at least 70%) or total protection (Sphaerotheca fuliginea) | good (at least 70%) or total protection [1] | good (at least 70%) or total protection (Pyrenophora teres)
COC(=O)C(c1cc(C(F)(F)F)ccc1Cl)N(C(=O)c1c(C)nn(C)c1F)C1CC1 (stereo not shown) [Compound 391] | at least 70% | at least 70% | –
Cc1nc(C(F)F)c(C(=O)N(Cc2ccc(F)c(Oc3ccccc3)c2)C2CC2)s1 [Compound 211] | at least 70% | at least 70% | –
Cc1nn(C)cc1C(=O)N(Cc1cc(C(F)(F)F)ccc1Cl)C1CC1 [Compound 372] | at least 70% | at least 70% | –
Cc1cc(C(=O)N(Cc2cc3c(cc2Cl)OCO3)C2CC2)c(C)o1 [Compound 40] | – | – | at least 70%
Cc1ccc(CN(C(=O)c2cn(C)cc2C(F)(F)F)C2CC2)cc1C [Compound 105] | at least 70% | at least 70% | –
CCn1nc(C)c(C(=O)N(Cc2c(Cl)cc(Cl)cc2Cl)C2CC2)c1F [Compound 437] | at least 70% | at least 70% | –
CCCC(c1ccc(Cl)cc1Cl)N(C(=O)c1cn(C)nc1OC)C1CC1 (stereo not shown) [Compound 446] | at least 70% | at least 70% | –
Cc1nc(C(=O)N(Cc2ccc(Cl)cc2Cl)C2CC2)c(C)o1 [Compound 158] | at least 70% | at least 70% | –
CCCCC(c1ccc(C(F)(F)F)cc1)N(C(=O)c1cn(C)nc1C(F)(F)F)C1CC1 (stereo not shown) [Compound 468] | at least 70% | at least 70% | –
CCc1nn(C)c(F)c1C(=O)N(Cc1ccc(C(F)(F)F)cc1Cl)C1CC1 [Compound 323] | at least 70% | at least 70% | –
COc1nn(C)cc1C(=O)N(Cc1ccc(C(F)(F)F)cc1Cl)C1CC1 [Compound 247] | at least 70% | at least 70% | –
COc1ccccc1CN(C(=O)c1cc(C)oc1C)C1CC1 [Compound 35] | at least 70% | at least 70% | –
Cn1cc(C(=O)N(Cc2ccc(Br)cc2F)C2CC2)c(C(F)F)n1 [Compound 490] | at least 70% | at least 70% | –
CCn1nc(C)c(C(=O)N(Cc2ccc(C(F)(F)F)cc2Cl)C2CC2)c1F [Compound 434] | at least 70% | at least 70% | –
CCC(c1ccc(Cl)cc1Cl)N(C(=O)c1cn(C)nc1OC)C1CC1 (stereo not shown) [Compound 445] | at least 70% | at least 70% | –
CCCC(c1ccc(Cl)cc1Cl)N(C(=O)c1cn(C)cc1C(F)(F)F)C1CC1 (racemic) [Compound 130] | at least 70% | – | –
CCn1nc(C)c(C(=O)N(Cc2ccc(Cl)cc2Cl)C2CC2)c1F [Compound 435] | at least 70% | – | –
COc1ccccc1CN(C(=O)c1cn(C)nc1OC)C1CC1 [Compound 300] | at least 70% | at least 70% | –
Cn1cc(C(=O)N(Cc2cccc(OC(F)(F)F)c2)C2CC2)c(C(F)(F)F)n1 [Compound 346] | at least 70% | at least 70% | –
COCc1ccccc1C(C(=O)OC)N(C(=O)c1c(C)nn(C)c1F)C1CC1 (stereo not shown) [Compound 382] | at least 70% | – | –
